Reference: PubChem BioAssay AID2551 (National Center for Advancing Translational Sciences (NCATS), 2010)
In all, about 310,000 compounds went through this assay and about 17,000 (5.5%) were called active. The inconclusive results got no clear call from the source; some entries with a clear call stand among them for comparison. The call rests on the fitted dose curve; in most records, active means well fitted inhibition curve with a large enough effect; inconclusive means small, poorly fitted or top-dose-only effect, or effect the other way; inactive means no such curve, though single readings can be large or run the other way. Potencies beside an inconclusive call are fits to weak or partial responses and may not hold up.

Protein sequences, listed by entry. Tags and fused reporters are not part of them. Lines headed by an entry give the natural chain unless they say otherwise; changes in a name come on top.
UniProt P51450: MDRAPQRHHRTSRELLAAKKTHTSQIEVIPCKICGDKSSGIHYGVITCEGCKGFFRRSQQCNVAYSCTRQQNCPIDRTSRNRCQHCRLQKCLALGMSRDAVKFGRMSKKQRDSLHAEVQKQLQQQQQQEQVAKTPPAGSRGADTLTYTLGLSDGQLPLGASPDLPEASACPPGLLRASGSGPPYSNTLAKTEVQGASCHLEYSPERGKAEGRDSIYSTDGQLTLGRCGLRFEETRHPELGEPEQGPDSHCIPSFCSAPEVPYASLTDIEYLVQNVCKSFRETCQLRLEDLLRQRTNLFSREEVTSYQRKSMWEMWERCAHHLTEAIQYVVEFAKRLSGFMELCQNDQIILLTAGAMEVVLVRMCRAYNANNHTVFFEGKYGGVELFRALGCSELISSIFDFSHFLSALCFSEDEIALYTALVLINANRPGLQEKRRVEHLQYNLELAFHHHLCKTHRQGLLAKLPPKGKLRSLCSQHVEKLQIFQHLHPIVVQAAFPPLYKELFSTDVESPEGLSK

Biological target: Nuclear receptor ROR-gamma (Mus musculus) (UniProt P51450)
Assay: qHTS for inhibitors of ROR gamma transcriptional activity; further: nearly all actives have a fitted effect of over 60% in size
Conditions: Drosophila S2 Gal4-RORgamma UAS-luciferase reporter, 20 h; activity change, negative = inhibition: at 53.6 µM (top of the series)
Method in brief: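 Luminescence from a UAS-regulated Photinus luciferase reporter in stably transfected Drosophila Schneider cells is measured; decreased signal marks ROR gamma inhibition. Fusion expression is induced by 700 uM copper sulfate for 20 hr.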
On the % scale 0 is the no-effect control and ±100 the full control effect; potency means the concentration at half of the fitted maximal effect.

Potency, inconclusive:
Cc1ccccc1C(=O)Nc1ccccc1Sc1ccccc1 35.5 µM [activator, single point], Cn1ccc(NC(=O)Nc2cccc([N+](=O)[O-])c2)n1 7.08 µM [activator, partial curve], CCOC(=O)c1cccc(NS(=O)(=O)c2cnc[nH]2)c1 25.1 µM [activator, single point], Cc1nnc(N/N=C\c2ccc(-c3ccccc3[N+](=O)[O-])o2)n1N 28.2 µM [inhibitor, single point], CN1CCN(C(=O)c2cc(COc3ccc(F)cc3Cl)on2)CC1c1ccccc1 (stereo not given) 12.6 µM [activator, single point], COCC(C)NC(=O)c1ccc(-n2nc(C(F)(F)F)cc2-c2cccs2)cc1 (stereo not given) 15.8 µM [activator, single point], Cc1ccc(NS(=O)(=O)c2cccc3cccnc23)c(Cl)c1 35.5 µM [inhibitor, single point], Cc1nonc1C(=O)N/N=C/c1ccc(O)cc1 35.5 µM [inhibitor, single point], COc1ccc(C2=NN(C(=O)c3cccs3)C(O)(C(F)(F)F)C2)cc1 (stereo not given) 31.6 µM [activator, single point], O=C(CN1C(=O)S/C(=C/c2ccncc2)C1=O)N1CCOCC1 20 µM [activator, single point], COc1cc(OC)c(C(=O)Nc2ccccc2-c2ccccc2)cc1OC 11.2 µM [activator, partial curve], COc1nnc(-c2ccc(C)c(S(=O)(=O)NC(C)(C)CO)c2)c2ccccc12 0.631 µM [activator, single point], CN1C(C(=O)Nc2ccccn2)=C(O)c2sccc2S1(=O)=O 31.6 µM [activator, single point], COc1ccc2cc(C(=O)C3CCCN(C(=O)c4sc(C)nc4C)C3)ccc2c1 (stereo not given) 12.6 µM [activator, single point], Cc1ccc(Nc2nc(-c3sc(C)nc3C)cs2)cc1 14.1 µM [activator, single point], CC(C)CN1CN(S(=O)(=O)c2cccs2)c2nc3ccccc3nc21 35.5 µM [activator, single point], Cc1csc(Nc2ccc(Cl)cc2)n1 20 µM [inhibitor, single point], Cc1cc(C)c2[nH]c(C(=O)Nc3ccc(F)cc3Br)cc2c1 2 µM [inhibitor, partial curve, poor fit], CCOC(=O)c1cc(-c2ccccc2)sc1NC(=O)C(C)Sc1nnc(C)s1 (stereo not given) 35.5 µM [activator, single point], COc1ccc(/C=C2/Sc3ccc(C(=O)NCCN4CCCCCC4)cc3NC2=O)cc1 17.8 µM [inhibitor, single point], CNC(=S)/N=C(/Nc1ccccc1)c1ccccc1 7.08 µM [inhibitor, partial curve, poor fit], Cc1cc(NCCN2CCCCC2)n2c(nc3ccccc32)c1C#N 35.5 µM [inhibitor, single point], CCCCc1ccc(NC(=O)C(=O)NCCN2CCN(C(=O)c3ccc([N+](=O)[O-])cc3)CC2)cc1 22.4 µM [activator, single point], COc1ccc2cc(-c3ccccc3)ncc2c1 10 µM [inhibitor, partial curve, poor fit], Cc1ccc(C)c(-n2c(-c3csc(C)c3C)n[nH]c2=S)c1 14.1 µM [inhibitor, partial curve, poor fit], N#CC(C#N)=C(Nc1ccc(F)cc1)SCc1cccc(F)c1 31.6 µM [inhibitor, single point], COc1cc(/C=C/C(=O)OCC(=O)N2CC3(C)CC2CC(C)(C)C3)ccc1O (stereo not given) 11.2 µM [activator, single point], O=C(Nc1ccccc1)c1ccccc1NC(=O)C(F)(F)F 25.1 µM [inhibitor, single point], N#Cc1ccc(N=c2ssnc2Cl)cc1 15.8 µM [inhibitor, partial curve, poor fit], Cc1ccc(S(=O)(=O)N2CCN(C(=O)CSc3nc4ccccc4o3)C2)cc1 35.5 µM [activator, single point]

Potency, active:
C=CCn1cc(/C=N/Nc2nc3ccccc3[nH]2)c2ccccc21 4.47 µM, COc1ccc(-c2nc(-c3ccccn3)no2)cc1 0.562 µM, O=C(N/N=C/c1ccc(N2CCOCC2)s1)c1ccccc1Br 11.2 µM, O=C(N/N=C/c1ccc(O)cc1O)/C(=C/c1ccccc1)CCO 11.2 µM

Activity change, negative = inhibition, inactive:
C[C@H]1CCC(=O)N([C@H](CC#N)Cc2ccccc2)CC1 2.98%, Cc1cc(N/N=C\c2ccccc2)nc(-c2ccccc2O)n1 29.9%, CSCC[C@H](N)C(=O)N1CCC(C(=O)N[C@@H](C)C(=O)NCc2ccc(F)cc2)CC1 -10.4%, CN(CCc1ccc(Cl)c(Cl)c1)C[C@@H](O)COc1ccc(NS(C)(=O)=O)cc1 -12.6%, O=C(c1ccc(-c2ccccc2)cc1)c1ccc([N+](=O)[O-])cc1 32.2%, CCn1c(=O)c2cc(C(=O)N(C)c3ccc(OC)cc3OC)sc2c2ccccc21 19.4%, CC1(C)C(=O)OC(c2cc(Br)ccc2O)C(C)(C)C1=O (stereo not given) 16.4%, COc1ccccc1C(=O)Nc1ccnn1C1CCN(C(=O)c2ccoc2C)CC1 21.9%, Cn1nc(C(C)(C)C)cc1C(=O)NNC(=O)c1ccc(C(F)(F)F)cc1 -9.85%, CCC(C)(C)NC(=O)C(c1ccccc1Cl)N(C(=O)CCC(=O)Nc1cc(C)on1)C1CC1 (stereo not given) 21.2%, O=C(NCc1cccc(Cl)c1)c1cnn2c1NC(c1ccco1)CC2C(F)(F)F (stereo not given) 23.1%
